Reference: patent EP0791071B1, “ASSAY FOR PROLINE IMINOPEPTIDASE AND OTHER HYDROLYTIC ACTIVITIES” (LITMUS CONCEPTS, INC., priority 1994, dated 1996)

Legend:
[1] = Naphthalene derivatives reacting with Fast Garnet GBC chromogenic indicator laminae in test devices (Experiment XIV); details: naphthalene derivative lamina (from 5 mM solution) and Fast Garnet GBC lamina in test device, water added
[2] = Fast Garnet GBC indicator laminae detecting the reporter group 2-naphthylamine (Experiment I); parameters: key to Fast Garnet Color Solid Reagent: -: no red color formation; +/-: possible red color formation; +: clearly visible red color formation; ++: extremely intense red color formation; details: for Fast Garnet Color Solid Reagent: color after 5 minutes, duplicates
[3] = Fast Garnet GBC indicator solution detecting the reporter group 2-naphthylamine (Experiment I); parameters: key to Fast Garnet Color Liquid Reagent: -: no red color formation; +/-: possible red color formation; +: clearly visible red color formation; ++: extremely intense red color formation; details: for Fast Garnet Color Liquid Reagent: color after 5 minutes, duplicates

6-amino-naphthalene sulfonic acid
COLOR SCORE [1]: 0

Nc1ccc2ccccc2c1 [2-naphthylamine]
Fast Garnet Color Solid Reagent ([2]; 0.15 µg Naphthylamine): -
Fast Garnet Color Solid Reagent ([2]; 0.3 µg Naphthylamine): +
Fast Garnet Color Solid Reagent ([2]; 0.6 µg Naphthylamine): +
Fast Garnet Color Solid Reagent ([2]; 1.25 µg Naphthylamine): +
Fast Garnet Color Solid Reagent ([2]; 2.5 µg Naphthylamine): +
concentration that produced a clearly detectable red color, no color at lower concentrations ([2]; Fast Garnet GBC chromogenic indicator laminae): 0.3 micrograms/100 microliters
Fast Garnet Color Liquid Reagent ([3]; 0.15 µg Naphthylamine): -
Fast Garnet Color Liquid Reagent ([3]; 0.3 µg Naphthylamine): -
Fast Garnet Color Liquid Reagent ([3]; 0.6 µg Naphthylamine): -
Fast Garnet Color Liquid Reagent ([3]; 1.25 µg Naphthylamine): +
Fast Garnet Color Liquid Reagent ([3]; 2.5 µg Naphthylamine): +
concentration that produced a clearly detectable red color, no color at lower concentrations ([3]; Fast Garnet GBC chromogenic liquid reagent): 1.25 micrograms/100 microliters
